Mtb glucose medium: 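Growth of Mycobacterium tuberculosis over 3 days (7H9 medium with glucose and tyloxapol); the read-out is not stated. Compounds at 50 µM. Direction is inferred from retests: higher values go with more growth inhibition. Size under these conditions: about 69,000 compounds, about 760 of them at 50% or above in at least one test.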
Mtb cholesterol medium: 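Phenotypic screen: M. tuberculosis growth, cholesterol and DPPC medium, 4 days; the read-out is not stated. Concentration: 50 µM. Direction is inferred from retests: higher values go with more growth inhibition. Size under these conditions: about 69,000 compounds, about 370 of them at 50% or above in at least one test.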

Results are given as percent effect.
The record does not define 0% and 100%; most values in the screen are far below 50% and negative numbers occur (in some assays of this library far below -100).
The compounds are a random part of those screened.
Two or more numbers in one place are separate tests of the same structure; such repeats can differ widely.

compound: COCCN1CCN(C)C2(CCN(C(=O)c3ccnnc3)CC2)C1=O.O=C(O)C(F)(F)F
Mtb glucose medium: -5.118 and -1.819
Mtb cholesterol medium: -1.364

compound: Cc1cc(C(=O)N2CCC(n3cc(CO)nn3)CC2)ccc1F
Mtb glucose medium: 6.528
Mtb cholesterol medium: 2.95

compound: Cc1nn(C)c2cnn(Cc3ccc(C(=O)NCC4CCCO4)o3)c12 (stereo unspecified)
Mtb glucose medium: 3.883
Mtb cholesterol medium: -10.1

compound: CC(C)c1ccc(OCCC(=O)N2CCCC(C(N)=O)C2)cc1 (stereo unspecified)
Mtb glucose medium: 15.76
Mtb cholesterol medium: 0.949

compound: CN(C(=O)c1ccccc1N(C)S(C)(=O)=O)c1ccc(C(C)(C)C)cc1
Mtb glucose medium: -0.7693
Mtb cholesterol medium: 10.22

compound: Cc1noc(C)c1-c1cnc(CC2CCN(C(=O)c3cc[nH]n3)C2)cn1 (stereo unspecified)
Mtb glucose medium: 6.519
Mtb cholesterol medium: -12.44

compound: Cn1ncc2ccc(C3CCCN(Cc4ccsc4)C3)nc21 (stereo unspecified)
Mtb glucose medium: -21.03
Mtb cholesterol medium: 16.01 and 31.49

compound: CN(CCC(F)(F)F)C(=O)c1nc(S(C)(=O)=O)n2ccccc12
Mtb glucose medium: -20.81
Mtb cholesterol medium: -28.46

compound: CCOC1COC2(CCN(Cc3cccc(C)n3)CC2)C1.O=C(O)C(F)(F)F (stereo unspecified)
Mtb glucose medium: 5.459
Mtb cholesterol medium: -10.81

compound: CC(C)(C)C(=O)N1CCC(c2cnc(-c3cn[nH]c3)cn2)CC1
Mtb glucose medium: -5.499
Mtb cholesterol medium: -4.417 and -9.027

compound: CC(C)(CC(=O)Nc1cccc(Oc2ccccn2)c1)C(=O)O
Mtb glucose medium: -22.88
Mtb cholesterol medium: -14.7 and -11.65

compound: CC(O)Cc1cn(CC2CCN(C3CCSCC3)CC2)nn1 (stereo unspecified)
Mtb glucose medium: -5.032 and -2.933
Mtb cholesterol medium: 6.826

compound: [H][C@@]12CCC(=O)N(c3ccccc3)[C@]1([H])CCN2C(=O)c1ccoc1
Mtb glucose medium: -20.35
Mtb cholesterol medium: -10.34

compound: O=C(c1ccco1)N1CCC2(CC1)CCN(c1ncccn1)CC2
Mtb glucose medium: 22.5
Mtb cholesterol medium: 18.08

compound: O=C1NCCN1C1CCN(c2ccnc(-c3ccccc3)n2)CC1
Mtb glucose medium: 10.31
Mtb cholesterol medium: 11.72

compound: Cc1cc(C(F)(F)F)cc(N2CCC3(CCC(=O)N(CCO)C3)CC2)n1
Mtb glucose medium: -18.66
Mtb cholesterol medium: -26.45

compound: c1ncc2c(n1)CN(CC1CCCCO1)CC2 (stereo unspecified)
Mtb glucose medium: -34.78
Mtb cholesterol medium: 0.7351

compound: CC(CN1CCOCC1)NC(=O)c1cccc2cn[nH]c12 (stereo unspecified)
Mtb glucose medium: 0.7099 and 8.887
Mtb cholesterol medium: -6.674

compound: O=C(c1cncc(Br)c1)N1CCCc2ccc(F)cc21
Mtb glucose medium: 5.899
Mtb cholesterol medium: -20.09

compound: O=c1[nH]cnc2c1CCN(S(=O)(=O)c1ccc(OC(F)(F)F)cc1)C2
Mtb glucose medium: 9.505
Mtb cholesterol medium: 1.769

compound: COc1ccc2nc(CNC(=O)c3cc(C(C)C)on3)[nH]c2c1
Mtb glucose medium: 1.432
Mtb cholesterol medium: 9.878

compound: COc1cccc(COCC(=O)N2CCCC(c3nncn3C)C2)c1 (stereo unspecified)
Mtb glucose medium: 6.329
Mtb cholesterol medium: -9.743

compound: COCC(O)CN1CCC(NC(=O)c2cccc(C)c2)CC1 (stereo unspecified)
Mtb glucose medium: 17.59
Mtb cholesterol medium: 19.52

compound: Cc1nnn2c1COCC(CNC(=O)c1cnoc1C)C2 (stereo unspecified)
Mtb glucose medium: -3.321 and -23.21
Mtb cholesterol medium: -19.48

compound: Clc1snnc1CN1CCCCC1Cn1cncn1 (stereo unspecified)
Mtb glucose medium: -5.895
Mtb cholesterol medium: -17.44

compound: CSCCCN1CCCC(Cn2ccnc2)C1 (stereo unspecified)
Mtb glucose medium: 7.62
Mtb cholesterol medium: 5.636

compound: Cc1cc(N(C)C)nc(N(C)Cc2csc(C)n2)n1
Mtb glucose medium: 13.79 and 1.784
Mtb cholesterol medium: 2.268

compound: O=C(NCCc1csc(-c2cccnc2)n1)c1cnn2c1CCCC2
Mtb glucose medium: 1.682
Mtb cholesterol medium: -6.366

compound: CC(C)n1cc(CN2CCCN(C(=O)c3ccoc3)CC2)cn1
Mtb glucose medium: -20.75
Mtb cholesterol medium: 0.4613 and 3.652

compound: CC(C)N1CC[C@H](c2nnc(Cc3c[nH]c4ccccc34)o2)C1
Mtb glucose medium: -4.929 and -2.485
Mtb cholesterol medium: -23.15

compound: O=C(NCc1nnc2n1CCCCC2)N1CCC2(CCCCC2)C1
Mtb glucose medium: -21.95
Mtb cholesterol medium: -11.21

compound: Cn1cc(CCNC(=O)C2(c3cccc(Cl)c3)CC2)cn1
Mtb glucose medium: 9.969
Mtb cholesterol medium: 5.202

compound: COc1ccc(CNC(=O)CCN2CCOC(C(F)(F)F)C2)cc1 (stereo unspecified)
Mtb glucose medium: 3.203 and -0.9247
Mtb cholesterol medium: -2.268 and -10.08

Once more, the final 3:

compound,Mtb glucose medium,Mtb cholesterol medium
O=C(NCc1nnc2n1CCCCC2)N1CCC2(CCCCC2)C1,-21.95,-11.21
Cn1cc(CCNC(=O)C2(c3cccc(Cl)c3)CC2)cn1,9.969,5.202
COc1ccc(CNC(=O)CCN2CCOC(C(F)(F)F)C2)cc1 (stereo unspecified),3.203 and -0.9247,-2.268 and -10.08

The values are deposited in ChEMBL (CHEMBL3988442, “University of Dundee, Small-Polar-MMV Screening Library” (2021)).